In the supplement of paper PMC12067093, “Discovery and optimisation of a covalent ligand for TRIM25 and its application to targeted protein ubiquitination” (Chemical Science, 2025):
This is one part of the list.

By UniProt entry, the sequences of proteins in these tests, tags left out. Where a name states a change or a piece, a line headed by the entry shows the natural chain unless it says otherwise.
UniProt Q9BZL1: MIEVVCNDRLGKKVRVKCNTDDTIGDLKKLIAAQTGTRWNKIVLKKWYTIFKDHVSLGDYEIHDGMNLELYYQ
UniProt Q3KQV9: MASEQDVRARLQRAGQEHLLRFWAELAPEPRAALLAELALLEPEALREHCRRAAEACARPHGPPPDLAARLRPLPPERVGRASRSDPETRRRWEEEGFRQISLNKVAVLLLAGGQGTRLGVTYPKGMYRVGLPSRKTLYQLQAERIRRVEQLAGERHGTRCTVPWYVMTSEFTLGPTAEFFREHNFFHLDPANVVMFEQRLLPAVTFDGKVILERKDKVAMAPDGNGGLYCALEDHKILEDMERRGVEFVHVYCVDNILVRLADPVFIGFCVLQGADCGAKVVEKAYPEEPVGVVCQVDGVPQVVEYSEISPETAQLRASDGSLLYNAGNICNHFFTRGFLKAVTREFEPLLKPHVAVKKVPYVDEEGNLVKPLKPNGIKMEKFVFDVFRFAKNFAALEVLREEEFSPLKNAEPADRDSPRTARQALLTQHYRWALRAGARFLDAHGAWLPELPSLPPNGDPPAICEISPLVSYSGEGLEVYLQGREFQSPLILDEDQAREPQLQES
UniProt P29597: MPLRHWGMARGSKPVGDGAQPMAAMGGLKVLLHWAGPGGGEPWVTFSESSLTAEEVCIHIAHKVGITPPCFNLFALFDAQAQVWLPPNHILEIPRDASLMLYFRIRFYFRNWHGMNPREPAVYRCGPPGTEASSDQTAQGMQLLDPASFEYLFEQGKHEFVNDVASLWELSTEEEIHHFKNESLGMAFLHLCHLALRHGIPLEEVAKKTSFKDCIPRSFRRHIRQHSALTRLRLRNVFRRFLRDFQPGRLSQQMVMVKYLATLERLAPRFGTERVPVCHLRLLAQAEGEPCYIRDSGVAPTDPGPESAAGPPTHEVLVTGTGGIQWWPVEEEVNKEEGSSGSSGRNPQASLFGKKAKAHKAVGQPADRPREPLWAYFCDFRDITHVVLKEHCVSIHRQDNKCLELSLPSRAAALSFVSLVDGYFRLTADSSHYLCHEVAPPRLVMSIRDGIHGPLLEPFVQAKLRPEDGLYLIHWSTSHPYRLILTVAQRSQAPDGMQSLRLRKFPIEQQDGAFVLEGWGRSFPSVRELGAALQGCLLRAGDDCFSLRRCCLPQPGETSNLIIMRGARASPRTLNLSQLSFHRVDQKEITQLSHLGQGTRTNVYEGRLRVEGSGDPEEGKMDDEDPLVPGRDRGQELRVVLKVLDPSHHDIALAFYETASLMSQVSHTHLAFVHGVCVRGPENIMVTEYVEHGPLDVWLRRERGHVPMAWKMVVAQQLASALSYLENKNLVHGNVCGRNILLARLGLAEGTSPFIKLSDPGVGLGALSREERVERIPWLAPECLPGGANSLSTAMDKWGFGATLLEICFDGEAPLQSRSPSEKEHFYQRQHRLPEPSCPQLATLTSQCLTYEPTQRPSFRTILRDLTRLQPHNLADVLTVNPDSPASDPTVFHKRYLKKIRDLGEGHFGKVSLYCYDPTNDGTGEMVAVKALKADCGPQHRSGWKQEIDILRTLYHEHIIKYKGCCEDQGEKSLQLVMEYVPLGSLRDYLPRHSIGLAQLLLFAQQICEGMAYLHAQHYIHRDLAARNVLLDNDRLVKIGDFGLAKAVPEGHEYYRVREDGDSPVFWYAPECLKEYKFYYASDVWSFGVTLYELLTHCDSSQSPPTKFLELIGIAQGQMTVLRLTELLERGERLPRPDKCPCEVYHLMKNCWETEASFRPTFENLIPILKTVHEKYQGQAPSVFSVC
UniProt Q8TBC4: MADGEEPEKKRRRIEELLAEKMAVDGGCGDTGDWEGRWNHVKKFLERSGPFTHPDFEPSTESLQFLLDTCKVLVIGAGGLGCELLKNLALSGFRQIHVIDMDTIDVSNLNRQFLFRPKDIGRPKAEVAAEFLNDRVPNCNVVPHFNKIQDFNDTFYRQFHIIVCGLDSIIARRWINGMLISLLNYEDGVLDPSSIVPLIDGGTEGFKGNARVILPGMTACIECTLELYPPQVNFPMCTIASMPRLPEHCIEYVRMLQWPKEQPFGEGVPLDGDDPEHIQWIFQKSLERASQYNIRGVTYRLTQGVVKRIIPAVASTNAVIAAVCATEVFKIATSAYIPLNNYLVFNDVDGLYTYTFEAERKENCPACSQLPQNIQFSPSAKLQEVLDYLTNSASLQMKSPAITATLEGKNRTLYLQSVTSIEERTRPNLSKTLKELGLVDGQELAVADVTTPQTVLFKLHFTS
UniProt O43396: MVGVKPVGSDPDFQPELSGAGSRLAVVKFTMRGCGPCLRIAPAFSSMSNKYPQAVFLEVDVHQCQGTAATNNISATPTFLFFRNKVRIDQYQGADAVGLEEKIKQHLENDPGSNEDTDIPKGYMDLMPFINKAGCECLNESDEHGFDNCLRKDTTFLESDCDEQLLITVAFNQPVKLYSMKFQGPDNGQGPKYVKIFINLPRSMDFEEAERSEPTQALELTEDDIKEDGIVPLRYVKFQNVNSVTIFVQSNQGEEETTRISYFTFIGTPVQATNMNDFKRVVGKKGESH
UniProt P63279, whole entry, looked up: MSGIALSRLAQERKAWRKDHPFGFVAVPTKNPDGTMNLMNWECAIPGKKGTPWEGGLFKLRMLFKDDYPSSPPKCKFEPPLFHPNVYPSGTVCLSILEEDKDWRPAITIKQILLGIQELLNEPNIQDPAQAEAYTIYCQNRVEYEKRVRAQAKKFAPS
UniProt Q9H3M7: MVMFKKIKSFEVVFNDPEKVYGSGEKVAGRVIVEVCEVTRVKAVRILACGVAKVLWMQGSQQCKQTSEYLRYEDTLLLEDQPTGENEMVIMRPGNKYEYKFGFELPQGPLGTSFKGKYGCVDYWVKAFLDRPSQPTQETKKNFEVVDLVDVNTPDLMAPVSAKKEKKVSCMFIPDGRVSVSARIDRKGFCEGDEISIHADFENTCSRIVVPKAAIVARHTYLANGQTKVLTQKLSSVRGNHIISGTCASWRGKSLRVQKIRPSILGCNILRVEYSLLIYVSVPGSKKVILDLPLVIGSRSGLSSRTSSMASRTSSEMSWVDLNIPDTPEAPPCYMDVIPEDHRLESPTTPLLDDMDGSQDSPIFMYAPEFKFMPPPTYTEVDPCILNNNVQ
UniProt P10599: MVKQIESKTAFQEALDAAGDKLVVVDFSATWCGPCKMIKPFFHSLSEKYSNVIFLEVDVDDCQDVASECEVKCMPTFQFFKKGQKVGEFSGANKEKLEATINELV
UniProt Q8IYN6: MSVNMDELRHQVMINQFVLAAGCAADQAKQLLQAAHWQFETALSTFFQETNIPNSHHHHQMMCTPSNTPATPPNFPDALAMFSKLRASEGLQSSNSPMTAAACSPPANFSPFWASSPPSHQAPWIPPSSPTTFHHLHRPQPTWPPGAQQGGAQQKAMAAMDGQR
UniProt Q9NZ09: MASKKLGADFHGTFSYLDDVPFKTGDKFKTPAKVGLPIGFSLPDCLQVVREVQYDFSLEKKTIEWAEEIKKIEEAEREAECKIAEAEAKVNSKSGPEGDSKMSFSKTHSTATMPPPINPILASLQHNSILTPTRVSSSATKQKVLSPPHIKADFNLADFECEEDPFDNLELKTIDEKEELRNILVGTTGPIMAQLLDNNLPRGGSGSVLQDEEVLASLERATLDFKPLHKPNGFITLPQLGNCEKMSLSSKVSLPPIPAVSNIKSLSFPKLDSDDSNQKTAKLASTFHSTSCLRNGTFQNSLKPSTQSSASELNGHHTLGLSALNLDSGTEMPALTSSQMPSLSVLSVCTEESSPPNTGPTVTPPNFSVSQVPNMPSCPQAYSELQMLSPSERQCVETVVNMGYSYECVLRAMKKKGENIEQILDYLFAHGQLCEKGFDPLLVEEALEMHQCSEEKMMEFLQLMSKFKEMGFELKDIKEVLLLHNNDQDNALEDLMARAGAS
UniProt Q9C0C9: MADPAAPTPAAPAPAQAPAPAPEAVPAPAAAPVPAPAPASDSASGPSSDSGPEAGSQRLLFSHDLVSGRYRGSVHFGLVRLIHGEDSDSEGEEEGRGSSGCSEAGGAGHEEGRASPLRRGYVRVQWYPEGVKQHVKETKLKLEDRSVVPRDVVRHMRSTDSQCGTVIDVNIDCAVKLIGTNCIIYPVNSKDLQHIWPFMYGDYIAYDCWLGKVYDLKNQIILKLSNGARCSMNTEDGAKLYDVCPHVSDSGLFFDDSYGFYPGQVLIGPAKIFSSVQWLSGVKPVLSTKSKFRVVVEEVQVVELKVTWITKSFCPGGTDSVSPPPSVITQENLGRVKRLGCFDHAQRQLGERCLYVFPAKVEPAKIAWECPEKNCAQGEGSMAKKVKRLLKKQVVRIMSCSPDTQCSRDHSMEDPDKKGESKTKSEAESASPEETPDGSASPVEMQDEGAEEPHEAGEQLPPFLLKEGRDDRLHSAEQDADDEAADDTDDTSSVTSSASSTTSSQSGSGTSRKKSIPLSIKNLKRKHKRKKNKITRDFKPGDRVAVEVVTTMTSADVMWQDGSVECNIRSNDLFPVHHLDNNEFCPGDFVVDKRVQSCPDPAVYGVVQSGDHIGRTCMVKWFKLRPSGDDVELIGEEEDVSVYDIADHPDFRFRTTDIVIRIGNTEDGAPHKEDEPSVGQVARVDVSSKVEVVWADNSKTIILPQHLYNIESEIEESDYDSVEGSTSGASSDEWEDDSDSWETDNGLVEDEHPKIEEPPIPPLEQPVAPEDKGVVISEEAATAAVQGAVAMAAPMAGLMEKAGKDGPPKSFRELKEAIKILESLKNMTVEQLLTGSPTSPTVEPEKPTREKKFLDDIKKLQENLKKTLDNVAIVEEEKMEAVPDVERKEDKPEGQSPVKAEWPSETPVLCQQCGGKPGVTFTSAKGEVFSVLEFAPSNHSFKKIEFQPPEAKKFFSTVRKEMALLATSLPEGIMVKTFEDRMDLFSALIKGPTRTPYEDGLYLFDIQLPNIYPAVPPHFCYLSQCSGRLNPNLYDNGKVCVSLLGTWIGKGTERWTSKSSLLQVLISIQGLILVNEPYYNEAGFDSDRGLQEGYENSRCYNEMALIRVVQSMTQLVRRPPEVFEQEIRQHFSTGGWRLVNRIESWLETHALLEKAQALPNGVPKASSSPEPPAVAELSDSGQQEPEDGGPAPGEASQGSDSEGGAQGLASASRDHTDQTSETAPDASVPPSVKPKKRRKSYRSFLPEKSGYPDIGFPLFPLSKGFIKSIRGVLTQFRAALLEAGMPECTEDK
UniProt Q9NNW7, whole entry, looked up: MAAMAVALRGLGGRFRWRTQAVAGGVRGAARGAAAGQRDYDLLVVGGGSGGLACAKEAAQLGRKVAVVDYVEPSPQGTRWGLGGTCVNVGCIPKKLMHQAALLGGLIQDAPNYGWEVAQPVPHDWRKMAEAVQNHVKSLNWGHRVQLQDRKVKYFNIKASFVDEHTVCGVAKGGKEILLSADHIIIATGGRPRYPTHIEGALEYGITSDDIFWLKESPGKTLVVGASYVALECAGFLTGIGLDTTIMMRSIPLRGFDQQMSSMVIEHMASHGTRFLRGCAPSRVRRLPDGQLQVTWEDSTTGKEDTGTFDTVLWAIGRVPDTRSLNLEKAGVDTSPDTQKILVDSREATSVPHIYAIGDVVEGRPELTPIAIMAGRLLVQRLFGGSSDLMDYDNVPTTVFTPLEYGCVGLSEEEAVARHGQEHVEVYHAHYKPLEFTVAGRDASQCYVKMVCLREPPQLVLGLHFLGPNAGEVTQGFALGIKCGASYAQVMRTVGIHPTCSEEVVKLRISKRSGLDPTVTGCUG
UniProt P49459, whole entry, looked up: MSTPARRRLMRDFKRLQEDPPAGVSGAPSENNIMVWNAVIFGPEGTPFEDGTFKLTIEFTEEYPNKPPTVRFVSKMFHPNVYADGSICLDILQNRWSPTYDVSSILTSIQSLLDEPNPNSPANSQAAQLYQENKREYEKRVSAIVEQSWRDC
UniProt P61081: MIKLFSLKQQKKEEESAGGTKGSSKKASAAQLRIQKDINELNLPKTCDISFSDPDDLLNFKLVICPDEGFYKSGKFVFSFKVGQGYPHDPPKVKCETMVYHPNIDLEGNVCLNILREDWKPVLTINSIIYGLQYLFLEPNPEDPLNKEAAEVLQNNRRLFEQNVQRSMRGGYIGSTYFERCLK
UniProt Q9GZZ9, whole entry: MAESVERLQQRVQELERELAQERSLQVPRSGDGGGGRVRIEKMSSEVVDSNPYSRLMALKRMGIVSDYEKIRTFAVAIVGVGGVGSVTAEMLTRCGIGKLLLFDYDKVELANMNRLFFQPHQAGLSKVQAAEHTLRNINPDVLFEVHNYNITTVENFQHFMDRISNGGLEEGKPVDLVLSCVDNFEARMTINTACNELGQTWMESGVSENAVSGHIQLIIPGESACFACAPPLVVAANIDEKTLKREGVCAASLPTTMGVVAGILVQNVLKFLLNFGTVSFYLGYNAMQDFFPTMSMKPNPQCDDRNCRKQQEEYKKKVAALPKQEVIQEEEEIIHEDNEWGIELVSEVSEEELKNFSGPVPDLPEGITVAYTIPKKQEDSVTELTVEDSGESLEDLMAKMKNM
UniProt Q13404: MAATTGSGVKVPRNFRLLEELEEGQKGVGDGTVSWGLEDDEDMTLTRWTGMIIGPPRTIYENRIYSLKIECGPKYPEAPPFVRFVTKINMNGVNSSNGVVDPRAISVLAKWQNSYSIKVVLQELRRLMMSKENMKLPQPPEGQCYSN

Compound: CC1Cc2ccccc2N1C(=O)C1CCCN(C1)C(=O)CCl (mixture of isomers) [TRIM25 ligand 11 (diastereomer mixture)]
Assay: probe-labelled cysteine peptide fold change vs DMSO (competition) (log2 fold change); higher = less target engagement (more negative = stronger competition)
Settings: THP-1, incubation time: 4 h
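Note: competitive chemoproteomic profiling in live THP-1 cells with an iodoacetamide desthiobiotin (IA-DTB) probe, comparing probe-labelled peptide intensities in compound-treated cells against DMSO-treated controls.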

Row | Target | probe-labelled cysteine peptide fold change (10 µM) | probe-labelled cysteine peptide fold change (50 µM)
1 | UBL5_Q9BZL1_6_IEVVCNDR (UniProt Q9BZL1) | -0.0789 | 0.129
2 | UBASH3B_Q8TF42_474_CVQTAHNILK (UniProt Q8TF42) | -0.00626 | -0.0601
3 | UAP1L1_Q3KQV9_278_LADPVFIGFCVLQGADCGAK (UniProt Q3KQV9) | 0.162 | 0.0886
4 | UBE3D_Q7Z6J8_330_VLYQPCIK (UniProt Q7Z6J8) | -0.0233 | -0.00246
5 | TYK2_P29597_402_CLELSLPSR (UniProt P29597) | 0.176 | 0.126
6 | UBA1_P22314_481_YFLVGAGAIGCELLK (UniProt P22314) | 0.0132 | 0.0456
7 | TYK2_P29597_1140_CPCEVYHLMK (UniProt P29597) | -0.0795 | -0.214
8 | UBA3_Q8TBC4_249_LPEHCIEYVR (UniProt Q8TBC4) | -0.0187 | -0.0301
9 | UBP1_Q9NZI7_409_EDLVQICGAADGIR (UniProt Q9NZI7) | -0.0773 | -0.11
10 | TXNL1_O43396_135+137+149_AGCECLNESDEHGFDNCLR (UniProt O43396) | -0.02 | -0.634
11 | UBR2_Q8IWV8_837_GMYELKPECAK (UniProt Q8IWV8) | -0.0983 | -0.214
12 | UBE2I_P63279_75+93_CKFEPPLFHPNVYPSGTVCLSILEEDK (UniProt P63279) | -0.257 | -0.253
13 | TXNIP_Q9H3M7_63_VLWMQGSQQCK (UniProt Q9H3M7) | 0.115 | 0.423
14 | TXN_P10599_35_LVVVDFSATWCGPCK (UniProt P10599) | -0.356 | -0.505
15 | UBALD2_Q8IYN6_23_HQVMINQFVLAAGCAADQAK (UniProt Q8IYN6) | 0.0907 | 0.074
16 | UBN1_Q9NPG3_38_EEAGAGEQHQDCEPAAAAVR (UniProt Q9NPG3) | 0.0183 | -0.166
17 | UBAP1_Q9NZ09_434_KGENIEQILDYLFAHGQLCEK (UniProt Q9NZ09) | -0.0198 | 0.0814
18 | UAP1L1_Q3KQV9_271+278_LADPVFIGFCVLQGADCGAK (UniProt Q3KQV9) | 0.0951 | 0.0877
19 | TYW3_Q6IPR3_109_FEPFVLHVQCR (UniProt Q6IPR3) | 0.0625 | 0.0745
20 | UBR4_Q5T4S7_4642_FKPYCNFDK (UniProt Q5T4S7) | 0.184 | 0.12

Single entries from the list:
Value for TXNIP_Q9H3M7_63_VLWMQGSQQCK (UniProt Q9H3M7) under probe-labelled cysteine peptide fold change (10 µM): 0.115
Value for UBAP1_Q9NZ09_434_KGENIEQILDYLFAHGQLCEK (UniProt Q9NZ09) under probe-labelled cysteine peptide fold change (10 µM): -0.0198

(next part)

Row | Target | probe-labelled cysteine peptide fold change (10 µM) | probe-labelled cysteine peptide fold change (50 µM)
21 | UBE2O_Q9C0C9_585_SNDLFPVHHLDNNEFCPGDFVVDK (UniProt Q9C0C9) | 0.0368 | 0.0154
22 | TXNRD2_Q9NNW7_168_ASFVDEHTVCGVAK (UniProt Q9NNW7) | 0.102 | 0.0705
23 | UBE3A_Q05086_760_YLFRPEEIELLICGSR (UniProt Q05086) | -0.0125 | 0.0225
24 | TXNRD1_Q16881_339_EYCISSDDLFSLPYCPGK (UniProt Q16881) | 0.364 | 0.552
25 | UBE2O_Q9C0C9_375_NCAQGEGSMAK (UniProt Q9C0C9) | -0.114 | -0.196
26 | UBR2_Q8IWV8_115_DCAVDPTCVLCMECFLGSIHR (UniProt Q8IWV8) | -0.0634 | 0.0238
27 | UBR1_Q8IWV7_1603_NSLIELPDDYSCLLNQASHFR (UniProt Q8IWV7) | -0.017 | -0.181
28 | UBA3_Q8TBC4_28_MAVDGGCGDTGDWEGR (UniProt Q8TBC4) | -0.144 | -0.124
29 | UBQLN4_Q9NRR5_29_DKEEIVICDR (UniProt Q9NRR5) | -0.0549 | -0.248
30 | UBAP2_Q5T6F2_78_NQDECIVALHDCNGDVNK (UniProt Q5T6F2) | -0.149 | -0.0293
31 | UBA1_P22314_632_SIPICTLK (UniProt P22314) | -0.0494 | -0.0618
32 | UBE2A_P49459_88_MFHPNVYADGSICLDILQNR (UniProt P49459) | -0.181 | -0.0675
33 | UBE2O_Q9C0C9_230_CSMNTEDGAK (UniProt Q9C0C9) | -0.0963 | -0.168
34 | UBE2M_P61081_47_TCDISFSDPDDLLNFK (UniProt P61081) | -0.0194 | 0.00465
35 | UBA5_Q9GZZ9_181_ISNGGLEEGKPVDLVLSCVDNFEAR (UniProt Q9GZZ9) | -0.156 | -0.169
36 | UBA1_P22314_706_SLVLQRPQTWADCVTWACHHWHTQYSNNIR (UniProt P22314) | -0.0392 | 0.101
37 | TXNRD2_Q9NNW7_523_SGLDPTVTGCUG (UniProt Q9NNW7) | -0.465 | -2
38 | TYMP_P19971_293_CVGHALEVEEALLCMDGAGPPDLR (UniProt P19971) | 0.157 | 0.192
39 | UBE2V1_Q13404_71_IECGPK (UniProt Q13404) | -0.388 | -0.214
